Measurements from the supplement of paper PMC11006884.
Most of the targets with a hit are listed elsewhere, so they are rarer here than in the full data. The data scatter; read single values as rough. The entries are a selection whose mix differs from that of the whole data set.

Protein sequences, listed by entry. Tags and fused reporters are not part of them. Lines headed by an entry give the natural chain unless they say otherwise; changes in a name come on top.
UniProt Q5T5Y3: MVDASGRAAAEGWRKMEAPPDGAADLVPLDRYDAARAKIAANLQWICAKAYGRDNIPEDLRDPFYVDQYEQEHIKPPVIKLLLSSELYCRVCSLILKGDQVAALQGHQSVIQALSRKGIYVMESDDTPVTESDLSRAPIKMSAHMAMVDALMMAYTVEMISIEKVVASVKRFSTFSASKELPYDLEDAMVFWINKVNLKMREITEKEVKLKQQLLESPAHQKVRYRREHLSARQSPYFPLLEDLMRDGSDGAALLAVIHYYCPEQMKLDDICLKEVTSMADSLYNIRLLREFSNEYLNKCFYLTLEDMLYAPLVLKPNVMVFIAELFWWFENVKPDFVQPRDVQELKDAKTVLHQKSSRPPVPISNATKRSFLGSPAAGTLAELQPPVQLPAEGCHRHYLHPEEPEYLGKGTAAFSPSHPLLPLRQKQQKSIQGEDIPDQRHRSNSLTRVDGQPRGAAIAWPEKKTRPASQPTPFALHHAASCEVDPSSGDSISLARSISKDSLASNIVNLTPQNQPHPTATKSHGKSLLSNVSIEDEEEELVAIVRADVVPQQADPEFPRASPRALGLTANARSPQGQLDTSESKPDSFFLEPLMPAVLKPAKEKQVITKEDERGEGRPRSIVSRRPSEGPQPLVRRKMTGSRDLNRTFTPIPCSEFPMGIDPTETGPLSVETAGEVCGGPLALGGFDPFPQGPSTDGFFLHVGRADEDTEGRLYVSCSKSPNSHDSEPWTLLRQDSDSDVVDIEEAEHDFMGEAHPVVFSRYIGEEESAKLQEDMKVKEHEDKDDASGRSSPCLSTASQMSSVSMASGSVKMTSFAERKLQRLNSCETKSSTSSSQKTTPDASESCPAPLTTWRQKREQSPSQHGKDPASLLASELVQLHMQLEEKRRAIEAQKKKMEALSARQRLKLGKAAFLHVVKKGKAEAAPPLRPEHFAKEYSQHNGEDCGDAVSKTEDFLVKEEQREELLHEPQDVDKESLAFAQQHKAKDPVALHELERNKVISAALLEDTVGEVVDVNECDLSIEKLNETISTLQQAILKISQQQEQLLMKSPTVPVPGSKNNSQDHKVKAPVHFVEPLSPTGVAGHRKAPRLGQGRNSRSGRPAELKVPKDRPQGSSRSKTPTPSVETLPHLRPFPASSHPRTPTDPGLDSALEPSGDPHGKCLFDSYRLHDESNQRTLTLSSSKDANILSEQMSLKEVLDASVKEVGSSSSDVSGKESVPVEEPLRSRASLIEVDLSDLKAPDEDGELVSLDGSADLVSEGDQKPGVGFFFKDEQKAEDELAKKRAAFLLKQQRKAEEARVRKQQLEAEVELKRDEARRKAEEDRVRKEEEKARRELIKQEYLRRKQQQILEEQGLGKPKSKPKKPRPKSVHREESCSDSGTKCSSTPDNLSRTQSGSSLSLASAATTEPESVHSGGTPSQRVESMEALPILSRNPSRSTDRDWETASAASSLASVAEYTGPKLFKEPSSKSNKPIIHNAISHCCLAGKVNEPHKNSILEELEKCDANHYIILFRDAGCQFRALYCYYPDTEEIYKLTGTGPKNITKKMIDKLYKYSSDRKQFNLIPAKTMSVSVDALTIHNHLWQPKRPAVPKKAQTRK
UniProt Q6ZSJ8: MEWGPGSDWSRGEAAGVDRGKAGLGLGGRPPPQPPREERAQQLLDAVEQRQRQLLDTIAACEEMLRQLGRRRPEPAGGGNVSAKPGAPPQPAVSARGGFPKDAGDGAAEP
UniProt Q6P996: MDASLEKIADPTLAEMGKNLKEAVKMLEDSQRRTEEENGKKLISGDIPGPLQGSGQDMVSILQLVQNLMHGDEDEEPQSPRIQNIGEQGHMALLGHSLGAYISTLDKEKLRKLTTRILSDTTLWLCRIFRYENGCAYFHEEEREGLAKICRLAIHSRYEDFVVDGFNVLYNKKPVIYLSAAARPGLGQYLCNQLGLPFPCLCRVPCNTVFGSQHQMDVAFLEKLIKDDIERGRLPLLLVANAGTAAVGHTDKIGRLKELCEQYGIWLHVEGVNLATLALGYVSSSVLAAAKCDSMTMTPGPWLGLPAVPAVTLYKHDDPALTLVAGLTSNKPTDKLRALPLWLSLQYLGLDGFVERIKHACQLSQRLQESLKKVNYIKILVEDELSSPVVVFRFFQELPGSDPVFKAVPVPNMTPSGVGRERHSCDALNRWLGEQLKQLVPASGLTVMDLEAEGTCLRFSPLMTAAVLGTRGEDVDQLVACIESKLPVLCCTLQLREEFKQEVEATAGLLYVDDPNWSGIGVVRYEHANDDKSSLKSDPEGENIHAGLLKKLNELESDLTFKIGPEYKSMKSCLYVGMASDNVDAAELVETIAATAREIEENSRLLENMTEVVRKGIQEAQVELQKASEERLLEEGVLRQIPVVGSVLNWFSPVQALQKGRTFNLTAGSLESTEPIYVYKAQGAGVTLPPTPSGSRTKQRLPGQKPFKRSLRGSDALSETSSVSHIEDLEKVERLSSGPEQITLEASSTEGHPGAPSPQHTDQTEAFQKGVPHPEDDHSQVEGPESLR
UniProt Q5BKX5: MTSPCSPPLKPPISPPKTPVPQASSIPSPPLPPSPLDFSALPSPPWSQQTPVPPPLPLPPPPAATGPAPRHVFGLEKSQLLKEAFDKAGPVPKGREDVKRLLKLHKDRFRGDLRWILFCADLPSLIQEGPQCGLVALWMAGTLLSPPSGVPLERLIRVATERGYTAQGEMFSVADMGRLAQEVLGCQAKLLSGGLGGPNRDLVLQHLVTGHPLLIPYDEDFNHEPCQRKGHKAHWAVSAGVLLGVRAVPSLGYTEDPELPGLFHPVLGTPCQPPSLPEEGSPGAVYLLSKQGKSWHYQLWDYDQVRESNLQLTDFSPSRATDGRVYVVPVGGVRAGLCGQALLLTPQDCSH
UniProt Q5VZ89: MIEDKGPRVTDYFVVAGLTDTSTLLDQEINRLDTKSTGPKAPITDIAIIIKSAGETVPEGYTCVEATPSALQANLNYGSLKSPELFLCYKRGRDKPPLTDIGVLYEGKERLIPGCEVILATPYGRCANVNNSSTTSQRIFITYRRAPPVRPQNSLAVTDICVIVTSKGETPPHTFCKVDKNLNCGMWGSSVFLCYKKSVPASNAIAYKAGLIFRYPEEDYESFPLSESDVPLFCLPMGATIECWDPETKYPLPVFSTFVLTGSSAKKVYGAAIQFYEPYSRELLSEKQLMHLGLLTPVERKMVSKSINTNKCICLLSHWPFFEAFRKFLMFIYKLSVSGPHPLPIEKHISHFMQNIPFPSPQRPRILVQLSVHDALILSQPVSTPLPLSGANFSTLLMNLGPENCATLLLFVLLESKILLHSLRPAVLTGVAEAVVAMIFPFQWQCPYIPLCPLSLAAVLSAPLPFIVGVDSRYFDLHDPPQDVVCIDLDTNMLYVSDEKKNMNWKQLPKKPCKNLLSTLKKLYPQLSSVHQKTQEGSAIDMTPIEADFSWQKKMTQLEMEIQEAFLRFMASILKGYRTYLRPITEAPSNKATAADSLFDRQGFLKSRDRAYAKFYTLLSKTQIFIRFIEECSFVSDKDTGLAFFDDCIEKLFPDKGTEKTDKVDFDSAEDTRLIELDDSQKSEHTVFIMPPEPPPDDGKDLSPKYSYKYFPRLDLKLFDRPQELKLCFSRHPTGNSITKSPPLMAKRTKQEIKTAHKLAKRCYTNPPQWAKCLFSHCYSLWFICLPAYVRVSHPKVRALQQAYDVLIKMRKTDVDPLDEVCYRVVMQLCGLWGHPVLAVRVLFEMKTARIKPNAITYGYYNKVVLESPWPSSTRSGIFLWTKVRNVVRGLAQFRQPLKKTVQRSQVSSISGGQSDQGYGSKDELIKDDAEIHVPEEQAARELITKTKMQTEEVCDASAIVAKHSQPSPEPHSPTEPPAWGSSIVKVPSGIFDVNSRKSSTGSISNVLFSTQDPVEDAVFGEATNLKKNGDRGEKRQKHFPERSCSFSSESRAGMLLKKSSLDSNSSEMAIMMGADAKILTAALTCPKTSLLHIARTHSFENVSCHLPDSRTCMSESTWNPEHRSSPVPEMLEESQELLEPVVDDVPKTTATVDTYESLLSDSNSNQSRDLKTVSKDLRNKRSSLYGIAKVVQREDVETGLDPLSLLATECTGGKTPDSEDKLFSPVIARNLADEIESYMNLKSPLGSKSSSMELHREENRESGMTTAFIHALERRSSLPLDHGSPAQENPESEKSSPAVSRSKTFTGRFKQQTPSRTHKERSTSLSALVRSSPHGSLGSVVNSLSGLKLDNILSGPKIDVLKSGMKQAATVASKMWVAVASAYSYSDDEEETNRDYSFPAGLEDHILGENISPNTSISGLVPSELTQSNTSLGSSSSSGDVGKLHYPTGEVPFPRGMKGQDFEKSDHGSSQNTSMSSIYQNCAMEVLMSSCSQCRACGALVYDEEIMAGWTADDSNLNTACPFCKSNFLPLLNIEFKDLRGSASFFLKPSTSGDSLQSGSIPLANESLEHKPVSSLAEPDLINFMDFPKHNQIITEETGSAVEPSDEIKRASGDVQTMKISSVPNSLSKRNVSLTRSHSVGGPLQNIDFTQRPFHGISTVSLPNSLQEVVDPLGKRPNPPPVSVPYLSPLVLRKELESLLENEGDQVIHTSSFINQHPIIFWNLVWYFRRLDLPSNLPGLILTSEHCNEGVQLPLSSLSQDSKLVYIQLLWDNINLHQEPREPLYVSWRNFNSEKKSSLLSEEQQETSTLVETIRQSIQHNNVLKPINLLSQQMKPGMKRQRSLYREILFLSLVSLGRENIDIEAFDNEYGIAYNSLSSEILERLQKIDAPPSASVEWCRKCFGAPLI
UniProt Q5M775: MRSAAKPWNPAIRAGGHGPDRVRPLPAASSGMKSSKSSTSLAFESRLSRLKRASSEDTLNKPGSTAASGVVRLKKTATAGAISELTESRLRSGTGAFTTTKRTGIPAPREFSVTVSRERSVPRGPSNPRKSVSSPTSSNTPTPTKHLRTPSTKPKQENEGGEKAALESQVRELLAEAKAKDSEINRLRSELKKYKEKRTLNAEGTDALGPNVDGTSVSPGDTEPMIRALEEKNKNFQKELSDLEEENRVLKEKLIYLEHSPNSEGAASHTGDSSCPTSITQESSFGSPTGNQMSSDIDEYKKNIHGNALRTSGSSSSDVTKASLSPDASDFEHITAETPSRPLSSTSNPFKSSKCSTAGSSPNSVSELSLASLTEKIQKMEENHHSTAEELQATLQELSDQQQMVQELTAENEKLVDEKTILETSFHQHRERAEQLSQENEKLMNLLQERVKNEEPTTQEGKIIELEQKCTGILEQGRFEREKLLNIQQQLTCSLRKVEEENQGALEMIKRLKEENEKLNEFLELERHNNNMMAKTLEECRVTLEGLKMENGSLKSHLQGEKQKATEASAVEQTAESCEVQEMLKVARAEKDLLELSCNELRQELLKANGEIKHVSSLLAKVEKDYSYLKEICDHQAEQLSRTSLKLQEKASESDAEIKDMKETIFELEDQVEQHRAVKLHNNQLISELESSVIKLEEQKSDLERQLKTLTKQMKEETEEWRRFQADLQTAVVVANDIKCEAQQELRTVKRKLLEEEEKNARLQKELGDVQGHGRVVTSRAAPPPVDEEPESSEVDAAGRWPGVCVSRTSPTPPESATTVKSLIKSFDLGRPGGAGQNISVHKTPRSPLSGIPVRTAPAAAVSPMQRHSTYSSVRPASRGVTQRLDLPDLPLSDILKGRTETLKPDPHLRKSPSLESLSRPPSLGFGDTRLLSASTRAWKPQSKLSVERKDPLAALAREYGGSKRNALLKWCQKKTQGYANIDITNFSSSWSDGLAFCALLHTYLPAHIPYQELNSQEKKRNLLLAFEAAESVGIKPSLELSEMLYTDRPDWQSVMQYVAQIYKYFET
UniProt Q6IBW4: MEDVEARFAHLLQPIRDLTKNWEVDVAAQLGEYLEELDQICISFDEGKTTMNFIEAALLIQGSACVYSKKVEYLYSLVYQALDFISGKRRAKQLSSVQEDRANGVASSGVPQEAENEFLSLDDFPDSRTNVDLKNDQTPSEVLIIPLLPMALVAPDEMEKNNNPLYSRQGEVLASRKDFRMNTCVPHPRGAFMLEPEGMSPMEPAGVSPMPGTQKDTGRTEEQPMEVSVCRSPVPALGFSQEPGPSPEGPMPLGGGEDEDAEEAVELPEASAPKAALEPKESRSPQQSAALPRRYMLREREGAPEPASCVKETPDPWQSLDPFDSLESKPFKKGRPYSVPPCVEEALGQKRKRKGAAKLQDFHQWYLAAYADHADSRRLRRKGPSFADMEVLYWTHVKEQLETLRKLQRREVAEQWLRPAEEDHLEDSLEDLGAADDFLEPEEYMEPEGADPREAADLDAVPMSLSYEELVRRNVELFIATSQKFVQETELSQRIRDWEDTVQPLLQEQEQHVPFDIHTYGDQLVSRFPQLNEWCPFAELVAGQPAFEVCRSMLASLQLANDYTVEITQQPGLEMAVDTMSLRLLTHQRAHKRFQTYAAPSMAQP

Compound: COC(=O)/C=C/c1ccccc1 [methyl cinnamate]
Experiment: log2 ratio of iodoacetamide-alkyne labeling of the cysteine site, DMSO over compound (competition); higher = stronger covalent engagement of the cysteine by the compound, active = 1 or more
Conditions: 500 µM; treatment time 1 h; system: HEK293T cell lysate
Procedure, shortened: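 Three replicates, each with duplicate channels, were prepared from HEK293T lysate (2 mg/mL) treated with vehicle or electrophile at 500 µM for 1 h at ambient temperature. Iodoacetamide alkyne was then applied for 1 h, and samples were clicked to sCIP-TMT reagents, pooled, trypsin-digested overnight at 37 °C, enriched on streptavidin, acid-eluted and analysed on Orbitrap Eclipse LC-MS/MS with FAIMS, with FragPipe quantification. The log2 competition ratio per cysteine is the mean control-channel divided by the mean compound-channel reporter intensity. Cysteines quantified in only one replicate were left out.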

log2 ratio of iodoacetamide-alkyne labeling, inactive:
MAP1S C841 (UniProt Q66K74) 0.32
CAMSAP1 C1379 (UniProt Q5T5Y3) 0.636
C1orf122 C61 (UniProt Q6ZSJ8) 0.0853
UniProt Q6P1J9_C397 0.182
ALKBH5 C378 (UniProt Q6P6C2) 0.418
RIF1 C1139 (UniProt Q5UIP0) -0.026
NXN C147 (UniProt Q6DKJ4) 0.226
CEP170 C1049 (UniProt Q5SW79) -0.0584
UniProt Q6PJG6_C228 0.0899
RPRD2 C1071 (UniProt Q5VT52) -0.0773
PDXDC1 C573 (UniProt Q6P996) -0.137
AAGAB C203 (UniProt Q6PD74) 0.21
UniProt Q63HN8_C3609 0.0831
LARP1 C864 (UniProt Q6PKG0) 0.216
ARMC6 C297 (UniProt Q6NXE6) 0.179
ATAD2 C631 (UniProt Q6PL18) 0.227
FAM199X C235 (UniProt Q6PEV8) 0.0165
IQSEC1 C260 (UniProt Q6DN90) 0.0889
RABL3 C180 (UniProt Q5HYI8) -0.0544
UniProt Q5JTC6_C1060 0.146
NFXL1 C528 (UniProt Q6ZNB6) 0.219
C19orf54 C226 (UniProt Q5BKX5) -0.0754
RIF1 C2169 (UniProt Q5UIP0) 0.141
PDE12 C108 (UniProt Q6L8Q7) 0.382
PDE12 C119 (UniProt Q6L8Q7) 0.382
NUP188 C1294 (UniProt Q5SRE5) 0.374
UniProt Q5JSZ5_C1610 -0.0413
DENND4C C126 (UniProt Q5VZ89) 0.188
SARM1 C311 (UniProt Q6SZW1) 0.286
UniProt Q5JSZ5_C525 0.513
SASS6 C525 (UniProt Q6UVJ0) -0.0873
UniProt Q5TAX3_C1226 0.103
PRPF8 C772 (UniProt Q6P2Q9) 0.305
SPECC1 C740 (UniProt Q5M775) -0.0187
NCAPH2 C342 (UniProt Q6IBW4) 0.144
ZNF326 C12 (UniProt Q5BKZ1) 0.172
DNTTIP2 C618 (UniProt Q5QJE6) 0.175
